End groups of sequences in plain letters are not given here.
assay: peptide made by a vendor; conditions: whole synthesis, detection at 220 nm

Going from WWWLRRIW to FFFLSRIF, the “final HPLC purity” value rises from 96.88% to 97.41%.

Going from WWWLKKIW to WWWLRKIW, the “final HPLC purity” value rises from 96.03% to 96.56%.

Going from WWWLSRIW to WWWLKRIW, the “final HPLC purity” value falls from 98.33% to 95.62%.
